## Small-molecule microarray binding calls

Source: the ROBIN nucleic acid binder screens (doi:10.1002/anie.202211358).

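Each compound is printed as two spots on a slide made to bind it covalently, so it has no test concentration; the read-out is fluorescence of the bound, labelled oligonucleotide. For the PreQ1, TPP and SAM-II riboswitches the laboratory earlier reported (doi:10.1038/s41467-019-09493-3) 1 µM RNA, 2 h, and a rule that included a mean Z-score above 3 (spot signal-to-noise against the whole library), a score well above that on a control array, and duplicate spots agreeing (coefficient of variation under 100). The data file gives only the calls; its cut-offs may differ, and compounds hitting several targets are kept. These are primary screening calls, not affinities; a compound without a hit may have attached poorly or may still bind in solution.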
“active” means called a hit, “inactive” means screened and not called a hit.
This is an unselected part of the compounds tested.
A dash means that no call is listed here.

Targets (5′ to 3′):
SAM-II: SAM-II riboswitch RNA pseudoknot, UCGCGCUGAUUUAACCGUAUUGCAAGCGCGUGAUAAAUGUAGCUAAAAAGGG. About 200 hits among about 21,000 compounds.
TPP: TPP riboswitch RNA three-way junction, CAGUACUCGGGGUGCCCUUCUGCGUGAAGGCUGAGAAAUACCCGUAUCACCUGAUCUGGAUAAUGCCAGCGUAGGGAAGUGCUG. About 160 hits among about 24,000 compounds.
PreQ1: PreQ1 riboswitch RNA pseudoknot, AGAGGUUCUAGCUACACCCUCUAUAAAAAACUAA. From B. subtilis. About 170 hits among about 24,000 compounds.

SMILES	SAM-II	TPP	PreQ1
CCN(CC)CCCCNc1nc2cc(Cl)c(Cl)cc2nc1-c1ccc(-c2cccs2)s1	inactive	inactive	inactive
CCc1nnc2c3ccccc3nc(Nc3ccc(Cl)cc3)n12	inactive	inactive	inactive
CCOC(=O)CNc1c(N(C)C2CCCCC2)c(=O)c1=O	-	inactive	inactive
CN1CCc2c(sc3c2C(=O)NC(C=Cc2ccc([N+](=O)[O-])cc2)N3)C1 (stereo not shown)	inactive	inactive	inactive
Cc1cnccc1N1CCCN(c2cc(OC(C)C)nc(N)n2)CC1	inactive	inactive	inactive
Cc1ccc(Nc2c3c(nc4nncn24)CCC3)cc1F	-	inactive	inactive
COc1ccc(OC)c(C2C(C#N)=C(N)OC3=C2C(=O)CC(C)(C)C3)c1 (stereo not shown)	inactive	inactive	inactive
CN(C)c1ccc(-c2nc3ncccn3c2Nc2ccccc2)cc1	inactive	inactive	inactive
Nc1cccc(-c2n[nH]c(-c3ccc(Cl)cc3)n2)c1	inactive	inactive	inactive
COc1ccc(-c2noc(-c3nnn(-c4cc(C)cc(C)c4)c3N)n2)cc1	-	inactive	inactive
CCC(NC1CCN(S(C)(=O)=O)CC1)c1cccs1 (stereo not shown)	inactive	inactive	inactive
COc1ccc(C2C(C#N)=C(N)Oc3cc(C)oc(=O)c32)cc1OC (stereo not shown)	inactive	inactive	inactive
Cc1cc(NCc2ccc3[nH]c(C)c(C)c3c2)nc(N)n1	inactive	inactive	inactive
CCOC(=O)C1CCN(c2nc(N)c(C(=O)N3CCCC3)s2)CC1	inactive	inactive	inactive
CN1CCN(C[C@@H]2CN(Cc3cccc4nonc34)C[C@@H]2CO)CC1	inactive	inactive	inactive
O=C(Cc1ccccc1Cl)N1C[C@@H](CN2CCOCC2)[C@@H](CO)C1	inactive	inactive	inactive
Nc1nonc1C(=O)NCCNCc1ccc(OCc2ccccc2Cl)cc1	inactive	inactive	inactive
OC[C@@H](O)[C@@H](O)[C@H](O)[C@@H](O)CO	inactive	inactive	inactive
COc1ccccc1NC1c2ccccc2C(=O)N1Cc1ccccc1 (stereo not shown)	inactive	inactive	inactive
Cc1c(-c2cnn(C)c2)nc(N)c(C#N)c1-c1ccc2ccn(C)c2c1	inactive	inactive	inactive
COc1nc(C)cc(C)c1CN1CC(=O)N2CC[C@@H](O)C[C@H]2C1=O	inactive	inactive	inactive
CCc1cnc(C)nc1N1CCC(NCc2nc(C)cc(C)n2)CC1	inactive	inactive	inactive
Cn1c(=O)c2c(ncn2CCN)n(C)c1=O	inactive	inactive	inactive
COc1cccc(CNCc2ccc(C(F)(F)F)cc2)c1OC	inactive	inactive	inactive
Cc1c(CC(C)O)c(=O)oc2cc(OCC(=O)O)ccc12 (stereo not shown)	inactive	inactive	inactive
N[C@H]1CC[C@@H](n2cc(C(=O)N3CCc4[nH][nH]c(=O)c4CC3)nn2)CC1	inactive	inactive	inactive
C[C@H](c1ccc(F)cc1CCCC(=O)O)N(c1cc(F)ccc1F)S(=O)(=O)c1ccc(Cl)cc1	inactive	inactive	inactive
Cc1cc(-c2cccc3ccnn23)cnc1N	inactive	inactive	inactive
CCn1ncc(-c2cc(-c3[nH]c(C)c(C(=O)O)c3C)nc(N)c2C#N)c1C	inactive	inactive	inactive
O=C(CC(c1ccccc1)c1ccco1)NCc1cc2n(n1)CCNC2 (stereo not shown)	inactive	inactive	inactive
CCC(C)c1ccccc1OCc1nc(C)nn1CCO (stereo not shown)	inactive	inactive	inactive
CCCC1OC2C[C@@H]3[C@H]4CCC5=CC(=O)C=C[C@]5(C)[C@H]4C(O)C[C@]3(C)[C@]2(C(=O)CO)O1 (stereo partly shown)	inactive	inactive	inactive
Fc1ccc(Nc2nc(-c3cccnc3)nc3ccccc23)cc1F	inactive	inactive	inactive
NC(=O)C1=C(Nc2ccc(F)cc2)c2ccccc2S1(=O)=O	-	inactive	inactive
NC(=O)c1cccc2[nH]c(-c3ccc([C@H]4CCCN4)cc3F)nc12	inactive	inactive	inactive
N#Cc1c(N)sc2c1CCCC2	inactive	inactive	inactive
Cc1n[nH]c2c1C(c1ccc(OCc3ccccc3)cc1)C(C#N)=C(N)O2 (stereo not shown)	inactive	inactive	inactive
CNC(=O)CN1CCC(Oc2cc3c(Nc4cccc(Cl)c4F)ncnc3cc2OC)CC1	inactive	inactive	inactive
COc1cc(N)ccc1OCCCOc1ccc(N)cc1OC	inactive	inactive	inactive
CN(CCOc1ccc(CC2SC(=O)NC2=O)cc1)c1ccccn1 (stereo not shown)	inactive	inactive	inactive
COc1cccc([C@@H]2CCN(Cc3cccnc3OC)C[C@H]2O)c1	inactive	inactive	inactive
CC(=O)NC(CO)C(=O)NCc1cccnc1N1CCN(C)CC1 (stereo not shown)	inactive	inactive	inactive
CC(=O)OCCn1c2nc(=O)[nH]c(=O)c-2nc2cc(C)c(C)cc21	inactive	inactive	inactive
Nc1ccc2nc(SCc3ccccc3Cl)sc2c1	inactive	inactive	inactive

The first 3 entries again:

| SMILES | SAM-II | TPP | PreQ1 |
|---|---|---|---|
| `CCN(CC)CCCCNc1nc2cc(Cl)c(Cl)cc2nc1-c1ccc(-c2cccs2)s1` | inactive | inactive | inactive |
| `CCc1nnc2c3ccccc3nc(Nc3ccc(Cl)cc3)n12` | inactive | inactive | inactive |
| `CCOC(=O)CNc1c(N(C)C2CCCCC2)c(=O)c1=O` | - | inactive | inactive |